Values from PubChem BioAssay AID1259254 (NCATS, 2017)

Aim: 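Finding genes that stop cells copying their DNA twice in one cycle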 (primary screen)
System: human HCT116 colorectal cancer cells
Reagents: single siRNA against human genes
Timing: 3 days
Read-out: 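Nuclei stained with Hoechst and imaged; cell-cycle phase assigned by DNA content; G2 share scaled per plate, non-targeting siRNA 0%, GMNN siRNA 100%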
Reading the numbers: G2 robust z-score and G2 cells, % of GMNN control: higher = more G2 cells, more excess DNA replication; raw share of cells in G2: higher = larger share of cells with G2 DNA content
Call rule: 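An siRNA counts as active if its G2 robust z-score lies at least 5 MADs above the screen median; here such calls match roughly 38% of GMNN control or more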
The whole screen tested about 59,000 reagents; below is a part drawn at random. About 1,550 of all reagents (2.6%) were called active. 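G2 share is only a proxy for re-replication; each gene was hit by three separate siRNAs, and active genes were retested.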 Raw values vary from plate to plate and are shown uncorrected. The numbers tell different reagents against one gene apart. No sequences are given here. Not stated in the record: the amount of reagent.

gene	siRNA no.	G2 robust z-score	G2 cells, % of GMNN control	raw share of cells in G2 (%)	outcome
DMRT1 (doublesex and mab-3 related transcription factor 1)	1	-1.2	-5.49	2.99	inactive
DMRT1 (doublesex and mab-3 related transcription factor 1)	2	1.04	10.3	7.64	inactive
DMRT1 (doublesex and mab-3 related transcription factor 1)	3	0.759	8.31	7.93	inactive
ENTREP2 (endosomal transmembrane epsin interactor 2)	1	-1.06	-4.48	1.73	inactive
ENTREP2 (endosomal transmembrane epsin interactor 2)	2	-1.31	-6.24	2.07	inactive
ENTREP2 (endosomal transmembrane epsin interactor 2)	3	1.28	12	9.14	inactive
ELP4 (elongator acetyltransferase complex subunit 4)	1	-1.54	-7.88	1.45	inactive
ELP4 (elongator acetyltransferase complex subunit 4)	2	0.147	4	5.67	inactive
ELP4 (elongator acetyltransferase complex subunit 4)	3	0.162	4.11	4.73	inactive
ERVW-1 (endogenous retrovirus group W member 1, envelope)	1	2.42	20	11.5	inactive
ERVW-1 (endogenous retrovirus group W member 1, envelope)	2	-0.426	-0.0308	4.54	inactive
ERVW-1 (endogenous retrovirus group W member 1, envelope)	3	0.0455	3.29	4.29	inactive
LRRC57 (leucine rich repeat containing 57)	1	-0.724	-2.13	2.81	inactive
LRRC57 (leucine rich repeat containing 57)	2	0.0512	3.33	4.27	inactive
LRRC57 (leucine rich repeat containing 57)	3	1.51	13.6	7.54	inactive
MZB1 (marginal zone B and B1 cell specific protein)	1	1.51	13.6	9.25	inactive
MZB1 (marginal zone B and B1 cell specific protein)	2	-0.995	-4.03	2.25	inactive
MZB1 (marginal zone B and B1 cell specific protein)	3	-1.52	-7.74	2.44	inactive
CDC37 (cell division cycle 37, HSP90 cochaperone)	1	-0.317	0.739	4.12	inactive
CDC37 (cell division cycle 37, HSP90 cochaperone)	2	1.08	10.6	7.69	inactive
CDC37 (cell division cycle 37, HSP90 cochaperone)	3	1.14	11	10.8	inactive
ALAS2 (5'-aminolevulinate synthase 2)	1	-0.507	-0.603	4.86	inactive
ALAS2 (5'-aminolevulinate synthase 2)	2	1.02	10.1	7.77	inactive
ALAS2 (5'-aminolevulinate synthase 2)	3	5.28	40.1	18.4	active
PRPS1 (phosphoribosyl pyrophosphate synthetase 1)	1	-0.0867	2.36	6.39	inactive
PRPS1 (phosphoribosyl pyrophosphate synthetase 1)	2	-0.917	-3.48	2.8	inactive
PRPS1 (phosphoribosyl pyrophosphate synthetase 1)	3	-1.32	-6.33	3.28	inactive
UTS2R (urotensin 2 receptor)	1	-0.583	-1.14	4.59	inactive
UTS2R (urotensin 2 receptor)	2	-0.364	0.408	4.84	inactive
UTS2R (urotensin 2 receptor)	3	-0.193	1.61	4.68	inactive
FERMT1 (FERM domain containing kindlin 1)	1	4.49	34.5	17.8	inactive
FERMT1 (FERM domain containing kindlin 1)	2	1.36	12.6	9.35	inactive
FERMT1 (FERM domain containing kindlin 1)	3	-0.817	-2.78	2.25	inactive
NDUFV1-DT (NDUFV1 divergent transcript)	1	1.17	11.2	6.67	inactive
NDUFV1-DT (NDUFV1 divergent transcript)	2	0.0422	3.26	4.83	inactive
NDUFV1-DT (NDUFV1 divergent transcript)	3	0.362	5.51	5.18	inactive
MC1R (melanocortin 1 receptor)	1	2.32	19.3	11.3	inactive
MC1R (melanocortin 1 receptor)	2	-0.616	-1.37	5.35	inactive
MC1R (melanocortin 1 receptor)	3	1.79	15.6	8.04	inactive
MEX3C (mex-3 RNA binding family member C)	1	-0.56	-0.973	5.51	inactive
MEX3C (mex-3 RNA binding family member C)	2	-1.33	-6.38	1.89	inactive
MEX3C (mex-3 RNA binding family member C)	3	2.28	19	11.1	inactive
ARHGAP40 (Rho GTPase activating protein 40)	1	0.169	4.16	5.41	inactive
ARHGAP40 (Rho GTPase activating protein 40)	2	-0.772	-2.47	2.18	inactive
ARHGAP40 (Rho GTPase activating protein 40)	3	-0.216	1.45	4.77	inactive
RAB3D (RAB3D, member RAS oncogene family)	1	-0.808	-2.71	2.27	inactive
RAB3D (RAB3D, member RAS oncogene family)	2	1.2	11.4	9.51	inactive
RAB3D (RAB3D, member RAS oncogene family)	3	-0.577	-1.09	4.31	inactive
NUP62CL (nucleoporin 62 C-terminal like)	1	-1.15	-5.1	1.78	inactive
NUP62CL (nucleoporin 62 C-terminal like)	2	1.79	15.6	10.8	inactive
NUP62CL (nucleoporin 62 C-terminal like)	3	-0.749	-2.31	2.43	inactive
HOXC9 (homeobox C9)	1	2.04	17.3	11.3	inactive
HOXC9 (homeobox C9)	2	0.772	8.4	8.88	inactive
HOXC9 (homeobox C9)	3	2.37	19.7	11.4	inactive
LOC728805 (retired record)	1	-0.958	-3.77	2.48	inactive
LOC728805 (retired record)	2	0.0592	3.38	4.41	inactive
LOC728805 (retired record)	3	0.382	5.65	5.31	inactive
MFN1P1 (MFN1 pseudogene 1)	1	-0.0879	2.35	4.53	inactive
MFN1P1 (MFN1 pseudogene 1)	2	-1.02	-4.22	1.81	inactive
MFN1P1 (MFN1 pseudogene 1)	3	-0.656	-1.65	2.56	inactive
ADAT1 (adenosine deaminase tRNA specific 1)	1	2.12	17.9	10	inactive
ADAT1 (adenosine deaminase tRNA specific 1)	2	0.00272	2.99	7.57	inactive
ADAT1 (adenosine deaminase tRNA specific 1)	3	-1.16	-5.22	2.41	inactive
TFIP11 (tuftelin interacting protein 11)	1	0.708	7.95	6.83	inactive
TFIP11 (tuftelin interacting protein 11)	2	1.79	15.6	13.2	inactive
TFIP11 (tuftelin interacting protein 11)	3	-0.901	-3.37	2.89	inactive
CBY2 (chibby family member 2)	1	-0.745	-2.27	2.47	inactive
CBY2 (chibby family member 2)	2	-0.669	-1.74	2.95	inactive
CBY2 (chibby family member 2)	3	7	52.2	21	active

In a second layout: entries from further up.
ALAS2 (5'-aminolevulinate synthase 2) #1
- G2 robust z-score: -0.507
- G2 cells, % of GMNN control: -0.603
- raw share of cells in G2 (%): 4.86
- outcome: inactive

ALAS2 (5'-aminolevulinate synthase 2) #2
- G2 robust z-score: 1.02
- G2 cells, % of GMNN control: 10.1
- raw share of cells in G2 (%): 7.77
- outcome: inactive

ALAS2 (5'-aminolevulinate synthase 2) #3
- G2 robust z-score: 5.28
- G2 cells, % of GMNN control: 40.1
- raw share of cells in G2 (%): 18.4
- outcome: active
